Here are results for one molecule from publication PMC5353636.

These are yes or no findings as the source states them, for the method shown. Binding calls can cover weak binding; strength is not graded here. Sequences can lack the tags named with a protein.

The assay concerns the target cytosolic C-terminal fragment of AKT2 fused to the DNA-binding domain (BD:CtAKT2) (Arabidopsis thaliana). Nature of the assay: two-hybrid; Matchmaker Gold; BD:CtAKT2 as bait (pGBKT7), AD:CtMRH1 as prey (pGADT7); library screen and direct test; growth on medium lacking adenine, histidine, tryptophan and leucine with aureobasidin A, 30 °C.

B1: cytosolic C-terminal fragment of the MRH1 kinase fused to the activation domain (AD:CtMRH1) (domain or fragment, UniProt C0LGQ4 527-678)
chain: AAKVSEIPFNLEARLNPKKHVSGDLEQTSLLLPPEPEANVHSFGVLMLEIISGKLSFSDEYGSIEQWASKYLEKDDLGEMIDPSLKTFKEEELEVICDVIRECLKTEQRQRPSMKDVAEQLKQVINITPEKATPRSSPLWWAELEILSSEAT
Consider B1, for which the binding entry is listed as “binds”.
